# Measurements as given in paper PMC4824076, “Integrated microfluidic approach for quantitative high-throughput measurements of transcription factor binding affinities”.
# Protein sequences can lack the tags named with them. The exact form of at least one protein or probe is not confirmed.
# Target: T1, ATF1 (Homo sapiens) (UniProt P18846)
# T1 sequence (looked up, limits assumed): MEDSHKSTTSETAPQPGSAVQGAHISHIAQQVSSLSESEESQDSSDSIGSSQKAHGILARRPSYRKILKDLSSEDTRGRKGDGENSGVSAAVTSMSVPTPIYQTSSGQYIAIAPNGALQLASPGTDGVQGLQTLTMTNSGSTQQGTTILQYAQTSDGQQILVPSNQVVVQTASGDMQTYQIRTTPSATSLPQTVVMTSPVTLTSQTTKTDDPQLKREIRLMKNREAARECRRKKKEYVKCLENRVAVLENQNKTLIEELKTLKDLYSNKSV
# Test: binding assay
# Settings: MITOMI-type chip (QPID); rabbit reticulocyte lysate, 1 h; wash 50 mM HEPES; temperature not stated; DNA spotted at 0.0156-2 uM; protein translated in vitro; protein details: N-cMyc, C-His6 (kept); label: Cy5 on the primer strand
row,Sequence,Kd [nM]
1,CGCAGTTGCGGCTTATTACGTCACAGTAATTGCTGTACCTCCGGCGGTATGAC (double strand) [57.ATF1_CRE_hs_9],62.5
2,CGCTTGGCAGACGTCGTGCGTCATTACCAACGAGGCGCCTCCGGCGGTATGAC (double strand) [90.ATF1_ATF3_CRE_hs_8],588
3,CGCAAGGCTGTGGGATTGCGTCACAATGACTGCGGGATCTCCGGCGGTATGAC (double strand) [56.ATF1_CRE_hs_8],166
4,CGCGGGCTTCATTCACGGCCCCCCTACCGTCCGCGTACCTCCGGCGGTATGAC (double strand) [126.Unbound_non_CRE_5],> 2000
5,CGCTCGGTGGCCTCCAGCCGTCAAACGACGCCGGCGGTCTCCGGCGGTATGAC (double strand) [39.ATF3_CRE_hs_25],> 2000
6,CGCCCAGTGCTGTGCGTCTGACGTCATTCTGCGGCGCTGGCCTCCGGCGGTATGAC (double strand) [7.ATF1_ATF3_CRE_1],124
7,CGCCCTTCCGCGGGCGCCCGTCACGTGGGCGGGGTCACCTCCGGCGGTATGAC (double strand) [21.ATF3_CRE_hs_7],382
8,CGCAACGTGGGCTGACCGTGACGTCACAATGGCGCGGCCAGCTCCGGCGGTATGAC (double strand) [5.ATF1_CRE_2],71.4
9,CGCGCGCCGTCGCTATGGCGTCACTGCCCTCGCGGCCACTCCGGCGGTATGAC (double strand) [89.ATF1_ATF3_CRE_hs_7],185
10,CGCCTGCGAAGGCTATCGCGTCATTCGATGGCTCCTCCCTCCGGCGGTATGAC (double strand) [64.ATF1_CRE_hs_16],443
11,CGCGGGAGAGGTTCGTAACGTCACAGGCCTGCGACGGACTCCGGCGGTATGAC (double strand) [31.ATF3_CRE_hs_17],594
12,CGCAGAAGCAGTCCAGGTCGTCAAAGTGCTCCATGTGCCTCCGGCGGTATGAC (double strand) [25.ATF3_CRE_hs_11],616
13,CGCCCCAATCCCGTCGAGCGTCAGGCGTGAGGCGGCGCCTCCGGCGGTATGAC (double strand) [91.ATF1_ATF3_CRE_hs_9],128
14,CGCCGGCGCGGCGCGGCACGTCAGTGGCCTTCCGGCCGCTCCGGCGGTATGAC (double strand) [116.ATF1_ATF3_CRE_hs_34],112
15,CGCCAGCAGCTGCCAGTGCGTCATCAGAGAGCGCCGGACTCCGGCGGTATGAC (double strand) [88.ATF1_ATF3_CRE_hs_6],192
16,CGCAGGCGGCTCCGCCTGCGTCATCCATGATTTCATCACTCCGGCGGTATGAC (double strand) [76.ATF1_CRE_hs_28],109
17,CGCTCGACACAAGCGCTACGTCACAAGGGTGCGCCACGCTCCGGCGGTATGAC (double strand) [85.ATF1_ATF3_CRE_hs_3],147
18,CGCGACGCGAGAGGCTCGCGTCATCCTGCAGCGCCGACCTCCGGCGGTATGAC (double strand) [106.ATF1_ATF3_CRE_hs_24],291
19,CGCCCCATGAATGAACATTGACGTCAATGGGGCGGGGCGCGCTCCGGCGGTATGAC (double strand) [3.ATF3_CRE_3],255
20,CGCGCGCGCGCTGACCTATGACGTCATCGGGACGTTAAGCACTCCGGCGGTATGAC (double strand) [4.ATF1_CRE_1],60.9
21,CGCGTGGAAATATAGCGCCGTCAACATCTTTTCCCCATCTCCGGCGGTATGAC (double strand) [52.ATF1_CRE_hs_4],1630
22,CGCGACGCCCTCGGGAGACGTCACCCGGACGCGACGACCTCCGGCGGTATGAC (double strand) [96.ATF1_ATF3_CRE_hs_14],> 2000
23,CGCGTCGCTGCCTCCTCGCGTCATCCCTCCGCGCCGGCCTCCGGCGGTATGAC (double strand) [49.ATF1_CRE_hs_1],277
24,CGCTTCCACCCGTGGACTCGTCAGGGCGTGAGGACCCACTCCGGCGGTATGAC (double strand) [37.ATF3_CRE_hs_23],386
25,CGCACAGCCTGAGCCCAGCGTCAGTCTCTTCCGACAGTCTCCGGCGGTATGAC (double strand) [119.Unbound_CRE_hs_3],1740
